Data as given in PubChem BioAssay AID588499 (NMMLSC, 2011).
Among all 360,000 compounds or so, about 610 (0.17%) were called active. The shares of active, inactive and inconclusive entries below differ from those in the screen. No stated cut-off is given here; in the data, active means inhibition above about 30%; inconclusive means no clear call, values can overlap the other calls; inactive means below that.

System: Botulinum neurotoxin type A light chain protease (Clostridium botulinum A str. ATCC 3502)
Test: blockers of BoNT/A LC substrate cleavage – biochemical, flow cytometry, MLPCN library, primary screen (AID 588499); further: plate controls were buffer without enzyme for full effect and enzyme alone for no effect
Details: multiplex microsphere protease substrate cleavage, at 10 µM, active compounds read high

Compound	inhibition
CCc1ccc(NC2=NC(C(=O)NC3CCCCC3)CC(=O)N2)cc1 (configuration not stated)	inconclusive: 3.8%
Cc1ccc(CNC(=O)C2CCCN(Cc3cnn(-c4ccccc4)c3-n3cccc3)C2)cc1 (configuration not stated)	inconclusive: 0.9%
CCOC(=O)CN1C(=O)C(O)(CC(=O)c2cccc(OC)c2)c2ccccc21 (configuration not stated)	inactive: -0.6%
O=S(=O)(c1ccccc1)N(CC1CO1)c1cc(Cl)ccc1Cl (configuration not stated)	inactive: 1%
O=C(c1cnn2c(C(F)(F)F)cc(-c3ccc4c(c3)OCO4)nc12)N1CCCC1	inconclusive: 2.2%
CCN1C(=O)C(Cc2nc3ccccc3c(=O)n2-c2ccccc2)c2ccccc21 (configuration not stated)	inconclusive: 7.5%
Cc1nnc(SCC(=O)NC2CCCCC2)n1-c1ccccc1	inactive: -0.2%
Cc1ccc(-n2c(Cc3cccs3)nnc2SCC(=O)Nc2ccc(F)c(F)c2)cc1	inconclusive: 1.4%
COc1ccc(OC)c(-c2cc(C(=O)Nc3cc(C)on3)no2)c1	inconclusive: 3.9%
CCCc1cc(=O)c2ccc(OC/C(C)=N/O)cc2o1	inconclusive: -41.8%
CC(C)(C)[C@@H]1COC(=O)[C@H](Cc2ccc(F)cc2)CC/C=C\C[C@@H](CC(=O)NCCO)C(=O)N1	inactive: 0.1%
CCCCCCC(=O)c1c(O)n(-c2ccc(OC)cc2)c(=O)[nH]c1=O (tested in a mixture with another compound)	inconclusive: -3%
CCOC(=O)COn1c(=O)c(-c2ccccc2)[n+]([O-])c2ccccc21	inactive: 1.6%
O=C(NCc1cccnc1)c1sc2ccccc2c1Cl	inconclusive: -4.1%
COc1ccc2ccccc2c1CN1CCN(C)CC1	inconclusive: 5.6%
CN1C(=S)SC(/[N+]([O-])=C\c2ccccc2F)C1(C)C (configuration not stated)	inconclusive: -13.3%
O=C(O)c1ccccc1C(=O)Nc1nc(-c2ccccc2)cs1	inconclusive: 2.7%
O=C(OCn1nnc2ccccc2c1=O)c1ccc(Br)o1	inconclusive: 4.6%
CC(C)c1ccc(OCC(=O)Nc2ccc3oc(=O)ccc3c2)cc1	inactive: -3.8%
Cn1c(=O)c2c(nc(N3CCN(c4ccccn4)CC3)n2Cc2ccccc2Cl)n(C)c1=O	inconclusive: 5.3%
O=C(NCCCCCCNC(=O)C1CCCC1)C1CCCC1	inconclusive: 1.4%
CCC1(c2ccccc2)NC(=O)N(CC(=O)Nc2ccccc2C(=O)NC2CCCC2)C1=O (configuration not stated)	inconclusive: 0.2%
C=C(C)CSC1=C(C#N)C(c2ccccc2)CC(=O)N1 (configuration not stated)	inconclusive: 3.7%

2 compounds drawn at random from the list so far:
Compound	inhibition
Cn1c(=O)c2c(nc(N3CCN(c4ccccn4)CC3)n2Cc2ccccc2Cl)n(C)c1=O	inconclusive: 5.3%
O=C(OCn1nnc2ccccc2c1=O)c1ccc(Br)o1	inconclusive: 4.6%

Additional records follow.

Compound	inhibition
COc1ccc(NC(=O)CCC(=O)N/N=C/c2ccncc2)cc1	inconclusive: -4.4%
CCCCn1c(O)c(C(CC)=NC(C)c2ccccc2)c(=O)[nH]c1=O (configuration not stated)	inactive: 0.6%
O=C1CCCCCN1CP(=O)(O)CN1CCCCCC1=O	inconclusive: -5.2%
CC(C)c1nnc(NC(=O)CCC(=O)Nc2ccc3cn[nH]c3c2)s1	inconclusive: 9%
COc1ccccc1NC(=O)Nc1ccc(Br)cn1	inactive: 0%
CCn1c(SCc2nc3ccccc3c(=O)[nH]2)nnc1-c1cccnc1	inconclusive: -0.4%
CN=c1scc(-c2ccc(OC)cc2)n1/N=C(\C)c1cccnc1	inactive: -0.6%
Nc1ccc2c(c1)nnn2-c1ccccc1	inactive: -0.3%
COc1cccc(C(=O)NC(=S)Nc2ccccc2N2CCCCC2)c1	inconclusive: 0.6%
O=C1c2cccc3c([N+](=O)[O-])ccc(c23)C(=O)N1c1nccs1	inactive: 0.3%
CCN(CC)CCN1C(=O)c2ccccc2NC1c1ccc(C)cc1 (configuration not stated)	inconclusive: 1.9%
CCn1nc(C(=O)OCC(=O)c2c[nH]c3ccccc23)c2ccccc2c1=O	active: 44.7%
CNc1cc(C(F)(F)F)nc(-c2ccccn2)n1	inconclusive: 7.3%
CCN1CCN=C1Nc1ccccc1	inactive: 0.1%
O=C(Nc1cc(S(=O)(=O)N2CCOCC2)ccc1N1CCCC1)c1ccc2c(c1)S(=O)(=O)c1ccccc1C2=O	inactive: -0.1%
C[C@H](NC(=O)Cn1cncn1)c1ccccc1	inactive: -0.8%
Cc1c(Cl)cccc1N1C(=O)c2ccccc2C1=O	inconclusive: -4.9%
COc1ccc(N2CCN(C(=O)CSc3nnc(NC(=O)C4CCC4)s3)CC2)cc1	inactive: -0.9%
O=[N+]([O-])c1cc(Cl)cc(C2=NCCN2)c1	inconclusive: -8.1%
CC(C)C[C@H]1COc2cccc(N(C)CCO)c2S(=O)(=O)N1	inactive: 0.9%
CCCN(CCC)C(=S)NC1CC2C=CC1C2 (configuration not stated)	inconclusive: -1.5%
C[C@H](NC(=O)Nc1cccc(C(F)(F)F)c1)C(=O)O	inconclusive: -2.7%
CCOc1ccc(NC(=O)CC2C(=O)N(c3ccccc3)C(=O)N2Cc2ccccn2)cc1 (configuration not stated)	inconclusive: 2.6%

Single entries from the list.
inhibition with `CCc1ccc(NC2=NC(C(=O)NC3CCCCC3)CC(=O)N2)cc1` (configuration not stated) is entered as inconclusive: 3.8%
inhibition with `CC(C)c1ccc(OCC(=O)Nc2ccc3oc(=O)ccc3c2)cc1` is entered as inactive: -3.8%

(more compounds)

Compound	inhibition
Cc1ccc(Nc2nc(C)cc(C)n2)c(Br)c1	active: 31.5%
CCCCN(C=O)c1c(CC)nc2ccc(C(=O)NCCc3c[nH]c4ccccc34)cn12	inactive: -0.4%
CCOC(=O)CSc1nc2c(sc(=S)n2Cc2ccco2)c(=O)n1-c1ccc(F)cc1	inconclusive: -1%
CCCC(=O)NC(c1ccco1)c1c(O)ccc2ccccc12 (configuration not stated)	inconclusive: -2.9%
OC(C#CCCN1CCCCC1)(c1ccccc1)C1CCCCC1 (configuration not stated)	inconclusive: -65%
Cc1ccc(S(=O)(=O)N(CC(=O)N2CCOCC2)C2CCCCC2)cc1	inconclusive: -4.1%
Cc1ccccc1OCC(=O)OCC(=O)c1c[nH]c2ccccc12	inactive: 1%
Cc1ccc2nc(-c3ccccc3)cc(C(=O)N3CCc4ccccc4C3)c2c1	inconclusive: 5%
O=C(CCCC(=O)OCC(=O)c1ccc(F)cc1)Nc1cc(C(F)(F)F)ccc1Cl	inconclusive: 0.3%
Cc1cc(C)n2nc(SCC(=O)NC3CCCC(C)C3C)nc2n1 (configuration not stated)	inactive: -7.5%
Cc1nc(N2CCN(c3ccc(Cl)cc3)CC2)[nH]c(=O)c1C	inconclusive: -2.9%
CCN1C(=O)/C(=C/C=C2/Sc3ccc4ccccc4c3N2CCO)SC1=S	active: 62.9%
COc1ccccc1-n1c(SCC(=O)Nc2ccc(Br)cc2)nc(O)cc1=O	inconclusive: -2.1%
COCCOC(=O)C1=C(C)Nc2nc(C)nn2C1c1ccc(F)cc1 (configuration not stated)	inconclusive: 9.2%
Cc1ccc(CN2CCN(CC(=O)N/N=C/c3ccccc3F)CC2)cc1	inconclusive: 1.5%
CNC(=O)CN(C)S(=O)(=O)c1ccc(F)cc1	inconclusive: -0.6%
CCOC(=O)COc1nc(-c2ccccc2)cc(-c2ccco2)c1C#N	inconclusive: 3.9%
COc1ccc2c(c1OC)C(=O)N1C2SC(C)(C)[C@H]1C(=O)NCC(C)C (some centres not stated)	inactive: -1.7%
O=C(c1cccc(N2C(=O)C3CC=CCC3C2=O)c1)N1CCCCCC1 (configuration not stated)	inconclusive: 14%
Cc1ccc(C(=O)OCC(=O)Nc2sc3c(c2C#N)CCCCC3)cc1NC(=O)c1ccco1	inconclusive: 0.9%
CCOC(=O)C1=C(C)NC(C)=C(C(=O)OCC)C1C(=O)O	inconclusive: -1.7%
Cc1cccc(NC(=O)C2CCCN(S(=O)(=O)c3cccc4nsnc34)C2)c1 (configuration not stated)	inconclusive: -3.5%
CC1(C)CN=C(NCc2ccccc2Cl)S1	inconclusive: -3.5%

Compound	inhibition
Nc1nc2ccccc2nc1N1CCCC1	active: 31.6%
Cc1cc(C(=O)NC(C)C2CCCO2)cs1 (configuration not stated)	inconclusive: 0.1%
CC(=NNC(=S)N1CCN(C2CCCCCC2)CC1)c1ccccn1	active: 82.2%
O=S(=O)(Nc1ccc2c(c1)nc1n2CCOC1)c1ccc(Cl)cc1	inactive: 1.1%
CCOC(=O)N1CCN(C(=O)c2ccc(C)c(S(=O)(=O)Nc3ccccc3)c2)CC1	inactive: 0.6%
CN1CCN(Cc2c(O)ccc3c(-c4ccccc4)cc(=O)oc23)CC1	inconclusive: 1.3%
N#CC1=C(O)CCCn2c1nc1ccccc1c2=O	inconclusive: -4.2%
O=C(COC(=O)c1nc(Cl)ccc1Cl)c1ccccc1Cl	inconclusive: 0.5%
CN(CC(=O)Nc1ccccc1Cl)C(=O)CSC(=S)N1CCCC1	inconclusive: 1.5%
Cc1cc(C(=O)Nc2cccc(C(=O)O)c2)c(C)o1	inconclusive: 2.8%
Cc1ccc(S(=O)(=O)N(C)C)cc1NC(=O)COC(=O)CNC(=O)C12CC3CC(CC(C3)C1)C2	inconclusive: 2.8%
CC(=O)Nc1c(F)cc(Br)cc1F	inconclusive: 7%
CC(C)(C)OC(=O)N1CCCC1C(=O)N1CCc2ccccc21 (configuration not stated)	inconclusive: 13.1%
COc1ccc(Cn2c(=O)c3[nH]cnc3n(-c3ccccc3C)c2=O)cc1	inconclusive: 1.5%
CCOc1ccccc1CNCCO	inconclusive: -0.8%
CSCCC1NC2(C(=O)Nc3c(C)cc(Cl)cc32)[C@@H]2C(=O)N(C3CCCC3)C(=O)[C@H]12 (some centres not stated)	inconclusive: -3.3%
COc1ccc(N2CCN(S(=O)(=O)c3ccc(OC)cc3)CC2)cc1	inconclusive: 2.3%
CCN(CC(=O)Nc1ccccc1C(F)(F)F)C(=O)c1ccccc1SCC(=O)N1CCCC1	inconclusive: -4.2%
COc1ccc(NC(C)(C)c2nnnn2-c2c(C)cccc2C)cc1	inconclusive: -23.3%
O=C(Nc1cccc2ccccc12)/C(=C/c1ccc([N+](=O)[O-])cc1)NC(=O)c1ccccc1	active: 34.1%
CC1CCc2c(sc(NC(=O)C(=O)NCc3ccco3)c2C#N)C1 (configuration not stated)	inconclusive: 9.7%
Cc1ccc(NC(=O)COc2ccccc2CNC(C)(C)CC(C)(C)C)cc1	inactive: -2.4%
C[C@H]1C(c2ccc(F)cc2)=NN(c2ccccc2)[C@@H]1CO	inactive: 0%
